Measurements published in article doi:10.1101/2022.09.28.509312.
Results are given in words; binding and its absence hold for the method and conditions named. Binding seen in cells or lysates may run through a third protein. Some binding calls cover weakened binding; strength is not graded here.

The chains behind the UniProt entries cited, without tags or fusion partners. Where a name states a change or a piece, a line headed by the entry shows the natural chain unless it says otherwise. A line that says so, or that is headed by a name, gives the form on record, which may keep a tag or linker.
UniProt P63073: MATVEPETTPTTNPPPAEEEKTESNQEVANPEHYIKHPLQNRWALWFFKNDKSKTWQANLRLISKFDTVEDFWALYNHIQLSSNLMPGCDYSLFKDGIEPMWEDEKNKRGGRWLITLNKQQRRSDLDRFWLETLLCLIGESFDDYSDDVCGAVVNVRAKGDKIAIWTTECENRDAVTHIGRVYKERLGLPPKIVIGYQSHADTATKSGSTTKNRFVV
eIF4E Ser209Ala (nonphosphorylatable knock-in mutant) (mouse (endogenous in dentate gyrus)) (P63073, form named): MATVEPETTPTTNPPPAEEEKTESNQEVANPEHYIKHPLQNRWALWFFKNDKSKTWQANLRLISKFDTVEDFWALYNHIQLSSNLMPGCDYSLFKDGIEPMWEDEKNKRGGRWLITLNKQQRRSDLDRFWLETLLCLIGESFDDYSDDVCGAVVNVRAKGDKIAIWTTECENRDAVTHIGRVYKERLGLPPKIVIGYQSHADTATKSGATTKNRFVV
UniProt Q7TMB8: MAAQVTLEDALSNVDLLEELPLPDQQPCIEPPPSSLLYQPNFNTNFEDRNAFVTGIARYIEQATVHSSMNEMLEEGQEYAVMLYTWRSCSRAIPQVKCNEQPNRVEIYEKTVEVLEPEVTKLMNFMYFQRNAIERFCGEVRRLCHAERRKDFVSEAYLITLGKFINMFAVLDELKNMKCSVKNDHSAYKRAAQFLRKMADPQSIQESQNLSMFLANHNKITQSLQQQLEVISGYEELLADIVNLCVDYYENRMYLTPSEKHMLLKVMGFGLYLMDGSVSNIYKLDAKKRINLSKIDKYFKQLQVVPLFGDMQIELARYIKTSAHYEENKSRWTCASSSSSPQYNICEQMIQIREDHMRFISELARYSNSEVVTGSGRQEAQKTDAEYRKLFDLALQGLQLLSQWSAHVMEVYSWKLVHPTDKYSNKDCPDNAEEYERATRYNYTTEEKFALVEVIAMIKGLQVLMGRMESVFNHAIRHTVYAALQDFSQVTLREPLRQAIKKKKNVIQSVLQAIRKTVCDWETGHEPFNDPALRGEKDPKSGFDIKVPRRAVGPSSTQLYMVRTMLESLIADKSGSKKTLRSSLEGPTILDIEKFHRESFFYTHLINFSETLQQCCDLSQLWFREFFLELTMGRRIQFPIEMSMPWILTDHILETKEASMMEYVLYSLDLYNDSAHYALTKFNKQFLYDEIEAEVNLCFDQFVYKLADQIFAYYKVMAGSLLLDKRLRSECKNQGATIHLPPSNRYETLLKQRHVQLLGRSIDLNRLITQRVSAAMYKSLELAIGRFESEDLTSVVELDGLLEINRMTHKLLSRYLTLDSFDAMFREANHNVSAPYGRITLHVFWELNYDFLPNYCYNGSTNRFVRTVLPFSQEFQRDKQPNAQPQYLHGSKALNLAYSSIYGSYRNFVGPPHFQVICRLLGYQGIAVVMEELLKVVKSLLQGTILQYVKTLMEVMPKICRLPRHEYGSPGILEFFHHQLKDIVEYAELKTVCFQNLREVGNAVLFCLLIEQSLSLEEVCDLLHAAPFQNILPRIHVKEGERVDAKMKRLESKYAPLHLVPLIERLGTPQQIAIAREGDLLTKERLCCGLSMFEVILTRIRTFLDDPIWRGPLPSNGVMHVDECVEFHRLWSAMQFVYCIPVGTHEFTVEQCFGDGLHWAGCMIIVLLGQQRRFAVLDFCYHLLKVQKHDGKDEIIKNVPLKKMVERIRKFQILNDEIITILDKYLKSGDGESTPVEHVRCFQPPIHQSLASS

B1: eIF4E-binding protein 2 (4E-BP2) (protein, UniProt P70445 1-120)
chain: MSASAGGSHQPSQSRAIPTRTVAISDAAQLPQDYCTTPGGTLFSTTPGGTRIIYDRKFLLDRRNSPMAQTPPCHLPNIPGVTSPGALIEDSKVEVNNLNNLNNHDRKHAVGDEAQFEMDI

What was measured:
[1] = biological target: eIF4E Ser209Ala (nonphosphorylatable knock-in mutant) (mouse (endogenous in dentate gyrus)) (UniProt P63073); assay: pull-down
[2] = biological target: eukaryotic initiation factor 4E (eIF4E), wild type (mouse (endogenous in dentate gyrus)) (UniProt P63073); assay: pull-down

Molecule | binding [1] | binding [2]
cytoplasmic FMRP interacting protein-1 (CYFIP1) (from UniProt Q7TMB8 1-1253) | binds | binds
B1 | binds | binds
